The values that follow come from article PMC10522489, “Eukaryotic-like gephyrin and cognate membrane receptor coordinate corynebacterial cell division and polar elongation” (Nature Microbiology, 2023).

This assay addresses Glp, endogenous (Corynebacterium glutamicum ATCC13032 (endogenous)). Kind of assay: affinity purification with mass spectrometry; Glp interactome: Cglu and Cglu_Δglpr cross-linked with 0.25% formaldehyde; anti-Glp antibodies on magnetic beads; control Cglu_Δglp; label-free XIC quantitation, 4 replicates.

Results are given in words; binding and its absence hold for the method and conditions named. In cells and extracts the contact can be indirect. A yes stands for co-enrichment or nearness to the bait. Other partners may have been found.

B1: FtsZ, endogenous (protein, UniProt P94337 1-442)
chain: MTSPNNYLAKIKVVGVGGGGVNAVNRMIEEGLKGVEFIAVNTDSQALMFSDADVKLDIGREATRGLGAGANPEVGRASAEDHKNEIEETIKGADMVFVTAGEGGGTGTGAAPVVAGIAKKMGALTIGVVTKPFEFEGRRRTRQAEEGIAALKEVCDTLIVIPNDRLLELGDANLSIMEAFRAADEVLHNGVQGITNLITIPGVINVDFADVRSVMSEAGSALMGVGSARGDNRVVSATEQAINSPLLEATMDGATGVLLSFAGGSDLGLMEVNAAASMVRERSDEDVNLIFGTIIDDNLGDEVRVTVIATGFDAARASAAENRRAGISAAPAAEPVQQQVPTTNATLPPEKESIFGGAREENDPYLSRSAGARHRIEETRSGGGLFTTGNDRDYRRDERREDHRDERRDERRDDRSYDRRDDRRDDRRDDRGDDLDVPSFLQ
With B1, the binding entry was “binds”.
